PubChem BioAssay AID493246 – Drosophila RNAi Screening Center | 2011
Assay: 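Genome-wide search for dsRNAs that reduce cell number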 (primary screen). Cell system: Drosophila Kc and S2R+ cells. Reagent: long dsRNA against Drosophila genes. Read-out: 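Raw, unnormalised count of remaining cells in each well; per-plate z-scores of cell number underlie the calls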. Reading the numbers: Kc cell number and S2R+ cell number: higher = more cells remaining. Hit rule: 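Counted as a hit if cell number falls by a z-score of at least 3 within its plate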.
The deposit covers about 21,000 reagents; below is a random part of those that have a named target and a result. In the full data, 429 (2%) got an active call. 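Values are raw and not normalised between plates; calls rest on per-plate z-scores that were not deposited.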 Names joined by + are all predicted targets of the reagent. Not given: the amount of reagent, the time to read-out.

gene knocked down,DRSC id,"Kc cell number, rep 1","Kc cell number, rep 2","S2R+ cell number, rep 1","S2R+ cell number, rep 2",call
Cpr62Bc,DRSC08545,1.43e6,1.32e6,1.15e6,1.33e6,inactive
GC,DRSC08396,1.35e6,1.32e6,1.08e6,1.26e6,inactive
Fkbp14,DRSC04615,1.44e6,1.52e6,1.14e6,1.31e6,inactive
CARPA,DRSC17905,1.56e6,1.49e6,1.11e6,1.24e6,inactive
CG1572,DRSC19686,6.30e5,,8.34e5,,inactive
RpS24,DRSC04414,1.14e6,1.14e6,8.66e5,1.02e6,active
CG17239,DRSC00492,1.45e6,1.51e6,1.06e6,1.18e6,inactive
CG17508,DRSC07771,1.41e6,1.22e6,9.95e5,1.30e6,inactive
CG13869 + CG11099,DRSC06428,1.76e6,1.84e6,1.21e6,1.40e6,inactive
Ahcy,DRSC19329,4.79e5,,8.28e5,,inactive
Fkbp59,DRSC03323,1.67e6,1.71e6,1.24e6,1.44e6,inactive
CG11327,DRSC02146,1.46e6,1.36e6,1.13e6,1.26e6,inactive
Ir56d,DRSC06590,1.50e6,1.58e6,1.20e6,1.34e6,inactive
TSG101,DRSC11098,1.25e6,1.34e6,1.19e6,1.31e6,inactive
CG12071,DRSC14471,1.20e6,1.00e6,4.69e5,5.74e5,active
sky,DRSC02383,1.49e6,1.47e6,1.06e6,1.14e6,inactive
sky,DRSC03214,1.38e6,1.45e6,9.87e5,1.01e6,inactive
sky,DRSC03215,1.57e6,1.67e6,1.26e6,3.80e5,inactive
aqz,DRSC16570,1.33e6,1.37e6,1.20e6,1.34e6,inactive
CG15286,DRSC01907,1.64e6,1.67e6,1.34e6,1.50e6,inactive
ari-1,DRSC20308,1.59e6,1.58e6,1.09e6,1.18e6,inactive
CG15745 (retired record),DRSC19711,1.72e6,1.80e6,1.09e6,1.21e6,inactive
Tapdelta,DRSC05946,1.29e6,1.42e6,8.85e5,9.91e5,inactive
CG42327,DRSC14936,1.53e6,1.70e6,1.25e6,1.40e6,inactive
CG42327,DRSC14937,1.66e6,1.71e6,1.27e6,1.43e6,inactive
MP1,DRSC12124,1.66e6,1.73e6,1.17e6,1.20e6,inactive
CG15525,DRSC15062,1.58e6,1.57e6,1.07e6,1.24e6,inactive
CG11694,DRSC14354,1.81e6,1.90e6,1.39e6,1.57e6,inactive
CG14369,DRSC14831,1.24e6,1.33e6,1.14e6,1.32e6,inactive
GstT4,DRSC19757,7.01e5,,9.87e5,,inactive
TpnC73F,DRSC11307,1.68e6,1.82e6,1.26e6,1.32e6,inactive
BicC,DRSC02005,1.57e6,1.60e6,1.35e6,1.57e6,inactive
fus,DRSC05569,1.56e6,1.53e6,1.12e6,1.32e6,inactive
fus,DRSC07107,1.44e6,1.55e6,1.08e6,9.73e5,inactive
RASSF8,DRSC15707,5.28e5,,7.39e5,,inactive
CG10317,DRSC14229,1.25e6,1.26e6,1.17e6,1.36e6,inactive
TTLL4A,DRSC02528,1.31e6,1.52e6,1.32e6,1.21e6,inactive
Hip14,DRSC10570,1.71e6,1.73e6,1.52e6,1.51e6,inactive
DopEcR,DRSC08529,1.38e6,1.37e6,1.27e6,1.20e6,inactive
Plekhm1,DRSC04527,1.57e6,1.74e6,1.39e6,4.55e5,inactive
CG33342,DRSC13662,1.16e6,1.59e6,1.10e6,1.12e6,inactive
alpha4GT1,DRSC00488,1.38e6,1.36e6,8.14e5,9.54e5,inactive
CG13404,DRSC19536,1.60e6,1.65e6,1.13e6,1.25e6,inactive
Cln7,DRSC11005,1.34e6,1.41e6,1.30e6,1.27e6,inactive
wds,DRSC18852,1.51e6,1.56e6,1.03e6,1.16e6,inactive
ND-B18,DRSC19947,1.51e6,1.55e6,1.07e6,1.20e6,inactive
Ank,DRSC17127,4.94e5,,7.66e5,,inactive
klg,DRSC13591,1.61e6,1.60e6,1.08e6,1.28e6,inactive
klg,DRSC16978,1.63e6,1.57e6,8.60e5,1.04e6,inactive
CG12321,DRSC14499,1.56e6,1.72e6,1.26e6,1.35e6,inactive
Gsc,DRSC00755,1.48e6,1.56e6,9.69e5,1.13e6,inactive
CG10674,DRSC09775,1.24e6,1.25e6,1.12e6,1.18e6,inactive
comm,DRSC11336,1.41e6,1.78e6,1.42e6,1.54e6,inactive
Met,DRSC20284,1.50e6,1.47e6,1.02e6,1.15e6,inactive
RhoGAP68F,DRSC10717,1.41e6,1.53e6,1.24e6,1.02e6,inactive
CG14907 + Mettl4,DRSC15026,1.37e6,1.35e6,1.08e6,1.18e6,inactive
CG14907 + Mettl4,DRSC15027,1.37e6,1.43e6,1.13e6,1.21e6,inactive
Idua,DRSC02941,1.26e6,1.32e6,1.09e6,1.22e6,inactive
PIG-A,DRSC06982,1.32e6,1.41e6,1.20e6,1.17e6,inactive

Laid out differently: entries from further up
| gene knocked down | DRSC id | Kc cell number, rep 1 | Kc cell number, rep 2 | S2R+ cell number, rep 1 | S2R+ cell number, rep 2 | call |
| --- | --- | --- | --- | --- | --- | --- |
| RpS24 | DRSC04414 | 1.14e6 | 1.14e6 | 8.66e5 | 1.02e6 | active |
| CG17239 | DRSC00492 | 1.45e6 | 1.51e6 | 1.06e6 | 1.18e6 | inactive |
| CG17508 | DRSC07771 | 1.41e6 | 1.22e6 | 9.95e5 | 1.30e6 | inactive |
